Data from PubChem BioAssay AID256 (DTP/NCI, 2004).
The list is a part of this screen's results and no random one: it is rich in T/C values a quarter to a half above the control, in often repeated tests (any T/C) and in doses without a T/C. Other doses and runs of a compound stand elsewhere. T/C: endpoint of the treated group in % of that of the vehicle group. Some entries give survivors of the animals treated and no T/C: the source holds a T/C of zero for them, seemingly a mark for toxic or unscored doses. Some doses without a T/C left all or most animals alive at the check, yet need not have been tolerated: the source hardly ever lists a survival T/C far under the control, and the zero likely stands for such cases as well. Survivors were counted at the toxicity check, usually on the fifth day, unless a day is given; later deaths do not show. Schedule codes are those of the source, read here as Q, the interval in days (D) or hours (H), X, the number of doses. For survival time, this PubChem deposit counts one and a half times the control or more as active, and values a quarter to a half above the control carry no call in these data; other NCI protocols may use other cut-offs. Some T/C values carry the count of animals alive at the toxicity check (mostly the fifth day); where none is given, no animal had died by that day. Some doses were run more than once; their values stand side by side, smallest first. Brackets with × stand for listed records that agree.

Test system: CD2F1 mice, L1210 leukemia ip, survival T/C
Experiment: NCI In Vivo Anticancer Drug Screen. Data for tumor model L1210 Leukemia (intraperitoneal) in CD2F1 (CDF1) mice
Conditions: higher T/C = longer survival
Procedure, shortened: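 Compound-dosed mice with transplantable tumor versus matched vehicle controls; endpoint ratio T/C reported.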

[1] = T/C endpoint: median survival time, dose: 1.0 mg/kg/injection, schedule: Q01DX001 (ip), vehicle: saline

Cc1c2oc3c(C)ccc(C(=O)N[C@@H]4C(=O)N[C@H](C(C)C)C(=O)N5CCC[C@H]5C(=O)N(C)CC(=O)N(C)[C@@H](C(C)C)C(=O)O[C@H]4C)c3nc-2c(C(=O)N[C@@H]2C(=O)N[C@H](C(C)C)C(=O)N3CCC[C@H]3C(=O)N(C)CC(=O)N(C)[C@@H](C(C)C)C(=O)O[C@H]2C)c(N)c1=O
T/C (T/C endpoint: mean survival time, dose: 0.02 mg/kg/injection, schedule: Q01DX009 (ip), vehicle: saline): 140 % of control
T/C (T/C endpoint: mean survival time, dose: 0.04 mg/kg/injection, schedule: Q01DX009 (ip), vehicle: saline): 140 % of control
T/C (T/C endpoint: mean survival time, dose: 0.05 mg/kg/injection, schedule: Q01DX007 (ip), vehicle: saline): 144 % of control
T/C (T/C endpoint: mean survival time, dose: 0.05 mg/kg/injection, schedule: Q01DX009 (ip), vehicle: saline): 134 % of control
T/C (T/C endpoint: mean survival time, dose: 0.1 mg/kg/injection, schedule: Q01DX007 (ip), vehicle: saline): 134 % of control
T/C (T/C endpoint: mean survival time, dose: 0.1 mg/kg/injection, schedule: Q01DX009 (ip), vehicle: saline): 138 % of control
T/C (T/C endpoint: mean survival time, dose: 0.1 mg/kg/injection, schedule: Q04DX003 (ip), vehicle: other): 133 % of control
survivor count (T/C endpoint: mean survival time, dose: 0.2 mg/kg/injection, schedule: Q01DX007 (ip), vehicle: other): 6 of 6
survivor count (T/C endpoint: mean survival time, dose: 0.2 mg/kg/injection, schedule: Q01DX007 (ip), vehicle: saline): 6 of 6
T/C (T/C endpoint: mean survival time, dose: 0.2 mg/kg/injection, schedule: Q03DX003 (ip), vehicle: other): 125 % of control [5 of 6 alive]
survivor count (T/C endpoint: mean survival time, dose: 0.4 mg/kg/injection, schedule: Q01DX007 (ip), vehicle: other): 1 of 6
survivor count (T/C endpoint: mean survival time, dose: 0.4 mg/kg/injection, schedule: Q01DX009 (ip), vehicle: other): 0 of 6
T/C (T/C endpoint: mean survival time, dose: 0.4 mg/kg/injection, schedule: Q04DX003 (ip), vehicle: other): 133 % of control
T/C (T/C endpoint: mean survival time, dose: 0.6 mg/kg/injection, schedule: Q01DX001 (ip), vehicle: saline): 140 % of control
T/C (T/C endpoint: mean survival time, dose: 50.0 micrograms/kg/injection, schedule: Q01DX009 (ip), vehicle: water, evaluated on day 30): 137 % of control
T/C (T/C endpoint: mean survival time, dose: 50.0 micrograms/kg/injection, schedule: Q01DX009 (ip), vehicle: water, evaluated on day 35): 131 % of control
T/C (T/C endpoint: mean survival time, dose: 100.0 micrograms/kg/injection, schedule: Q01DX009 (ip), vehicle: saline + alcohol): 134 % of control
survivor count (T/C endpoint: mean survival time, dose: 100.0 micrograms/kg/injection, schedule: Q01DX009 (ip), vehicle: water): 5 of 6
T/C (T/C endpoint: mean survival time, dose: 200.0 micrograms/kg/injection, schedule: Q01DX009 (ip), vehicle: saline + alcohol): 126 % of control
survivor count (T/C endpoint: mean survival time, dose: 200.0 micrograms/kg/injection, schedule: Q01DX009 (ip), vehicle: water): 4 of 6
T/C (T/C endpoint: median survival time, dose: 0.02 mg/kg/injection, schedule: Q01DX009 (ip), vehicle: water, evaluated on day 5): 125 and 131 % of control
T/C (T/C endpoint: median survival time, dose: 0.02 mg/kg/injection, schedule: Q01DX009 (ip), vehicle: water, evaluated on day 18): 131 % of control
T/C (T/C endpoint: median survival time, dose: 0.02 mg/kg/injection, schedule: Q01DX009 (ip), vehicle: water, evaluated on day 31): 125 % of control
T/C (T/C endpoint: median survival time, dose: 0.03 mg/kg/injection, schedule: Q01DX009 (ip), vehicle: water, evaluated on day 5): 111, 123, 126 (2×), 135, 136 % of control
T/C (T/C endpoint: median survival time, dose: 0.03 mg/kg/injection, schedule: Q01DX009 (ip), vehicle: water, evaluated on day 18): 123 % of control
T/C (T/C endpoint: median survival time, dose: 0.03 mg/kg/injection, schedule: Q01DX009 (ip), vehicle: water, evaluated on day 30): 111 [7 of 8 alive], 126 (2×), 136 % of control
T/C (T/C endpoint: median survival time, dose: 0.03 mg/kg/injection, schedule: Q01DX009 (ip), vehicle: water, evaluated on day 31): 135 % of control
T/C (T/C endpoint: median survival time, dose: 0.04 mg/kg/injection, schedule: Q01DX009 (ip), vehicle: water, evaluated on day 5): 76, 118, 123, 142, 146 % of control (2×)
T/C (T/C endpoint: median survival time, dose: 0.04 mg/kg/injection, schedule: Q01DX009 (ip), vehicle: water, evaluated on day 18): 146 % of control
T/C (T/C endpoint: median survival time, dose: 0.04 mg/kg/injection, schedule: Q01DX009 (ip), vehicle: water, evaluated on day 30): 123, 142, 146 % of control
T/C (T/C endpoint: median survival time, dose: 0.04 mg/kg/injection, schedule: Q01DX009 (ip), vehicle: water, evaluated on day 31): 118 % of control
survivor count (T/C endpoint: median survival time, dose: 0.04 mg/kg/injection, schedule: Q01DX009 (ip), vehicle: water): 8 of 8
T/C (T/C endpoint: median survival time, dose: 0.05 mg/kg/injection, schedule: Q01DX009 (ip), vehicle: water, evaluated on day 5): 67, 109, 129, 146, 147, 149 % of control
T/C (T/C endpoint: median survival time, dose: 0.05 mg/kg/injection, schedule: Q01DX009 (ip), vehicle: water, evaluated on day 18): 149 % of control
T/C (T/C endpoint: median survival time, dose: 0.05 mg/kg/injection, schedule: Q01DX009 (ip), vehicle: water, evaluated on day 30): 109, 129, 147 % of control
T/C (T/C endpoint: median survival time, dose: 0.05 mg/kg/injection, schedule: Q01DX009 (ip), vehicle: water, evaluated on day 31): 146 % of control
survivor count (T/C endpoint: median survival time, dose: 0.05 mg/kg/injection, schedule: Q01DX009 (ip), vehicle: water): 7 of 8
T/C (T/C endpoint: median survival time, dose: 0.06 mg/kg/injection, schedule: Q01DX009 (ip), vehicle: water, evaluated on day 5): 83, 124, 134, 137, 147, 149 % of control
T/C (T/C endpoint: median survival time, dose: 0.06 mg/kg/injection, schedule: Q01DX009 (ip), vehicle: water, evaluated on day 18): 149 % of control
T/C (T/C endpoint: median survival time, dose: 0.06 mg/kg/injection, schedule: Q01DX009 (ip), vehicle: water, evaluated on day 30): 134, 137, 147 % of control
T/C (T/C endpoint: median survival time, dose: 0.06 mg/kg/injection, schedule: Q01DX009 (ip), vehicle: water, evaluated on day 31): 124 % of control
survivor count (T/C endpoint: median survival time, dose: 0.06 mg/kg/injection, schedule: Q01DX009 (ip), vehicle: water): 8 of 8
T/C (T/C endpoint: median survival time, dose: 0.12 mg/kg/injection, schedule: Q04DX003 (ip), vehicle: saline): 135 % of control
T/C (T/C endpoint: median survival time, dose: 0.2 mg/kg/injection, schedule: Q04DX003 (ip), vehicle: saline): 132 % of control
T/C (T/C endpoint: median survival time, dose: 0.25 mg/kg/injection, schedule: Q01DX001 (ip), vehicle: saline): 130 % of control [8 of 9 alive]
T/C (T/C endpoint: median survival time, dose: 0.45 mg/kg/injection, schedule: Q01DX001 (ip), vehicle: saline): 130 % of control
T/C (T/C endpoint: median survival time, dose: 0.5 mg/kg/injection, schedule: Q01DX001 (ip), vehicle: saline): 131 and 142 % of control
T/C (T/C endpoint: median survival time, dose: 0.6 mg/kg/injection, schedule: Q01DX001 (ip), vehicle: saline): 129 % of control
T/C (T/C endpoint: median survival time, dose: 0.75 mg/kg/injection, schedule: Q01DX001 (ip), vehicle: saline): 137 % of control
T/C [1]: 122, 151, 152 % of control
survivor count [1]: 2 of 6
T/C (T/C endpoint: median survival time, dose: 50.0 micrograms/kg/injection, schedule: Q01DX009 (ip), vehicle: saline + alcohol): 126 % of control
T/C (T/C endpoint: median survival time, dose: 100.0 micrograms/kg/injection, schedule: Q01DX009 (ip), vehicle: saline + alcohol): 137 % of control
